For 1 molecule, binding results are on record in paper PMC10654033.

Chains of the proteins cited; added tags and fusions are not shown. Residues count along the entry.
UniProt P02768, residues 25-609: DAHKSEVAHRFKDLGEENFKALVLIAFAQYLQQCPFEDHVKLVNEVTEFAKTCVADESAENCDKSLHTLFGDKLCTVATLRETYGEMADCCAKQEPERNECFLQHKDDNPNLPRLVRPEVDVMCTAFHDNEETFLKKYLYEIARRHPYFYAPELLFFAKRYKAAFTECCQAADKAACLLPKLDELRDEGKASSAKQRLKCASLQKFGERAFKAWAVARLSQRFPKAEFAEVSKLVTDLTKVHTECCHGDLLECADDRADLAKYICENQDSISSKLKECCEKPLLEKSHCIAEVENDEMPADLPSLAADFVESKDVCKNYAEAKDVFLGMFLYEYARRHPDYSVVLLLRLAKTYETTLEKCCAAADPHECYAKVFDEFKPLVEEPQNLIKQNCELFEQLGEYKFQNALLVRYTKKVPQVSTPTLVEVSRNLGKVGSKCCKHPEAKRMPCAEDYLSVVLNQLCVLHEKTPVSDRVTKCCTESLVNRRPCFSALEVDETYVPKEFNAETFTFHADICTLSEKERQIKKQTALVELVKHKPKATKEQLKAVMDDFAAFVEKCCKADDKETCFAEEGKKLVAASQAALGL

The target in this experiment is human serum albumin (human) (UniProt P02768). As to the kind of experiment: far-Western, overlay or dot blot; slot binding: IdeS and HSA applied in slots to a PVDF membrane, probed with 125I-labeled SpnA (0.4–0.8 μg/ml) in Tris-buffered saline (0.05 M Tris–HCl, pH 7.5, 0.15 M NaCl) with 3% bovine serum albumin, 3 h at room temperature or 4 °C overnight; both purified.

Results are given in words; binding and its absence hold for the method and conditions named.

B1: 125I-labeled SpnA (recombinant, residues Val25 to Leu876) (enzyme, UniProt Q9A0J7 25-876)
chain: VTSRQNLTYANEIVTQRPKRESVISDKSNFPVISPYLASVDFGERKTPLPTPDKGVKVTTEQSIAQVRKGPEERPYTVTGKITSVINGWGGYGFYIQDSEGIGLYVYPQKDLGYSKGDIVQLTGTLTRFKGDLQLQQVTAHKKLELSFPTSVKEAVISELETTTPSTLVKLSHVTVGELSTDQYNNTSFLVRDDSGKSIVVHIDHRTGVKGADVVTKISQGDLINLTAILSIVDGQLQLRPFSLEQLEVVKKVTSSNSDASSRNIVKIGEIQGASHTSPLLKKAVTVEQVVVTYLDDSTHFYVQDLNGDGDLATSDGIRVFAKNAKVQVGDVLTISGEVEEFFGRGYEERKQTDLTITQIVAKAVTKTGTAQVPSPLVLGKDRIAPANIIDNDGLRVFDPEEDAIDYWESMEGMLVAVDDAKILGPMKNKEIYVLPGSSTRPLNNSGGVLLPANSYNTDVIPVLFKKGKQIIKAGDSYKGRLAGPVSYSYGNYKVFVDDSKNMPSLMDGHLKPEKTNLQKDLSKLSIASYNIENFSANPSSTKDEKVKRIAESFIHDLNAPDIIGLIEVQDNNGPTDDGTTDATQSAQRLIDAIKKLGGPTYRYVDIAPENNVDGGQPGGNIRTGFLYQPERVSLSDKPKGGARDALTWVNGELNLSVGRIDPTNAAWKDVRKSLAAEFIFQGRKVVVVANHLNSKRGDNALYGCVQPVTFKSEQRRHVLANMLAQFAKEGAKHQANIVMLGDFNDFEFTKTIQLIEEGDMVNLVSRHDISDRYSYFHQGNNQTLDNILVSRHLLDHYEFDMVHVNSPFMEAHGRASDHDPLLLQLSFSKENDKAESSKQSVKAKKTSKGKL
modifications: 125I radiolabel (IODO-BEAD iodination reagent)
As for B1, the binding entry was “no binding (tested: 0.4–0.8 μg/ml 125I-labeled SpnA)”.
